Values of other authors as cited in patent US11441195B2, “Energetic cancer stem cells (e-CSCs): a new hyper-metabolic and proliferative tumor cell phenotype, driven by mitochondrial energy” (LUNELLA BIOTECH, INC., priority 2018, dated 2022).
For at least one compound, name, drawing or mass did not settle the structure. Some entries repeat one wording, which the source may state once for all of them.

System: 3D tumor sphere formation
Conditions: cited from earlier work

Row | SMILES | 3D tumor sphere formation
1 | O=C1C(O)=C([C@H]2CC[C@H](c3ccc(Cl)cc3)CC2)C(=O)c2ccccc21 [atovaquone] | successfully blocked
2 | C[C@H]1c2cccc(O)c2C(=O)C2=C(O)[C@]3(O)C(=O)C(C(N)=O)=C(O)[C@@H](N(C)C)[C@@H]3[C@@H](O)[C@@H]21 [doxycycline] | successfully blocked
3 | Cc1cc(/C=C/c2ccc3cc(N(C)C)ccc3[n+]2C)c(C)n1-c1ccccc1 [pyrvinium pamoate] | successfully blocked
